No constants are given. Whether binding was seen depends on the method and setting.
Tests used:
Assay in all cases: SEC; Superdex 200 10/300 GL, 100 mM Tris-HCl pH 8.0, 150 mM NaCl; samples pre-incubated at 37°C for 30 min, injected at 500 ng/μl; fractions read by SDS-PAGE (Coomassie); self-association, trimer against monomer; both purified
[1] = target: HTRA1 A173P, myc-His6 tagged (UniProt Q92743)
[2] = target: HTRA1 A173T, myc-His6 tagged (UniProt Q92743)
[3] = target: HTRA1 G295R, myc-His6 tagged (UniProt Q92743)
[4] = target: HTRA1 R166C, myc-His6 tagged (UniProt Q92743)
[5] = target: HTRA1 R166L, myc-His6 tagged (UniProt Q92743)
[6] = target: HTRA1 Y169E/F171E, myc-His6 tagged (UniProt Q92743)

By UniProt entry, the sequences of proteins in these tests, tags left out. Where a name states a change or a piece, a line headed by the entry shows the natural chain unless it says otherwise. Chains listed by the source or under a name are the forms on record and can include a tag or linker.
HTRA1 A173P, myc-His6 tagged (Q92743, form named): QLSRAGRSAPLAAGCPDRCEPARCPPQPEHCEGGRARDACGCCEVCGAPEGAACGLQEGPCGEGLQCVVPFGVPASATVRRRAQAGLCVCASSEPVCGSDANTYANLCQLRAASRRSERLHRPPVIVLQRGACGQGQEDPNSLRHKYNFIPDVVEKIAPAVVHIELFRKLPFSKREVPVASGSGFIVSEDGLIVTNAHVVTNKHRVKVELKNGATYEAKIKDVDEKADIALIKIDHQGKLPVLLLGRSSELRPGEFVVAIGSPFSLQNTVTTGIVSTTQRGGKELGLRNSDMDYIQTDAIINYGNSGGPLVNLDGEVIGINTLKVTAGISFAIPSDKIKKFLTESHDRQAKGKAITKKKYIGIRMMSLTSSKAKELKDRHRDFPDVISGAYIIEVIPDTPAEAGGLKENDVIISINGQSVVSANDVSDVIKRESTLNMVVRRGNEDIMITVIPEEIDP
HTRA1 A173T, myc-His6 tagged (Q92743, form named): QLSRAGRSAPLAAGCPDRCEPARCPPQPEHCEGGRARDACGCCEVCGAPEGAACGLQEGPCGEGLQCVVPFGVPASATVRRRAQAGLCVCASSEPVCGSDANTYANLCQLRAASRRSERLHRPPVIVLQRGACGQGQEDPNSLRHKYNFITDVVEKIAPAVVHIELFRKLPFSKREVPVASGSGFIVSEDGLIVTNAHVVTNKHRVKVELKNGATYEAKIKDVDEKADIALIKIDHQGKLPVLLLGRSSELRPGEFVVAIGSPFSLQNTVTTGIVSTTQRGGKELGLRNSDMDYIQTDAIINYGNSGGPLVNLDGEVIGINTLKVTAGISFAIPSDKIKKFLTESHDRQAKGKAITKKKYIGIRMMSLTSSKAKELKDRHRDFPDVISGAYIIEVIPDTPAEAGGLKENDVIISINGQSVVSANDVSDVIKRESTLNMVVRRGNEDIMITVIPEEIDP
HTRA1 G295R, myc-His6 tagged (Q92743, form named): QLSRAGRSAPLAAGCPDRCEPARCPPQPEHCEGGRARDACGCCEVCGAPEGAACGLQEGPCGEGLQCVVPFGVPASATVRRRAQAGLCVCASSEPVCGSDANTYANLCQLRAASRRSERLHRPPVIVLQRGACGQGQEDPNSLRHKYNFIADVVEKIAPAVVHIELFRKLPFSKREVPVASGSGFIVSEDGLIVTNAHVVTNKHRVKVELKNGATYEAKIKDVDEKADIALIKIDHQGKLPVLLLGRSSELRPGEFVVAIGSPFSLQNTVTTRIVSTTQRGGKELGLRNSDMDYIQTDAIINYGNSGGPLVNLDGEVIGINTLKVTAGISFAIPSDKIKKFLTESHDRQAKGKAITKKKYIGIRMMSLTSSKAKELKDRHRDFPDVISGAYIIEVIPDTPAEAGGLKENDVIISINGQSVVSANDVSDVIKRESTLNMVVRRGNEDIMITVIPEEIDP
HTRA1 R166C, myc-His6 tagged (Q92743, form named): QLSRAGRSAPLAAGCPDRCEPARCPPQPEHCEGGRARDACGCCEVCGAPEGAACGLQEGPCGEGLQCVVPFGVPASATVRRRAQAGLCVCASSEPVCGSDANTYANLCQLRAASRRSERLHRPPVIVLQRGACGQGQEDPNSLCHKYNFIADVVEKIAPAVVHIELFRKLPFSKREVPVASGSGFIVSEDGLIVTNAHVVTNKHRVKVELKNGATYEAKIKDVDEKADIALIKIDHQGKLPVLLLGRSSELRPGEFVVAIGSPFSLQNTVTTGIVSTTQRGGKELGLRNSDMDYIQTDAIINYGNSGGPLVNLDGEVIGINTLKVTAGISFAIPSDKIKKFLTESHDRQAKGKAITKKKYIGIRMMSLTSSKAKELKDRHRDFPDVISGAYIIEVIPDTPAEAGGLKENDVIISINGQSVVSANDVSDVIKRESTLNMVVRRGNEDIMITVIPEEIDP
HTRA1 R166L, myc-His6 tagged (Q92743, form named): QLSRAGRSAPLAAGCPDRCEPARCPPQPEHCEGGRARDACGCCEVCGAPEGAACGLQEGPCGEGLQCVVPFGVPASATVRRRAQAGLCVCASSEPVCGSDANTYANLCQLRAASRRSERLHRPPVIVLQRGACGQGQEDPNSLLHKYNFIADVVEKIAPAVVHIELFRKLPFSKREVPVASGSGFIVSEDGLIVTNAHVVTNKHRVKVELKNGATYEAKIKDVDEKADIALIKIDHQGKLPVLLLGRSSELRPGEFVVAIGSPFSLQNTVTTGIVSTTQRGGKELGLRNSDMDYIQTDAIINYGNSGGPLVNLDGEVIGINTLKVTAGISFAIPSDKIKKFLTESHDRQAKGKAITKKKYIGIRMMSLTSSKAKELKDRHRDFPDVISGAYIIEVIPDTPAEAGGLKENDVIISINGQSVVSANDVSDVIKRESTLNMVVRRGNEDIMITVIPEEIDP
HTRA1 Y169E/F171E, myc-His6 tagged (Q92743, form named): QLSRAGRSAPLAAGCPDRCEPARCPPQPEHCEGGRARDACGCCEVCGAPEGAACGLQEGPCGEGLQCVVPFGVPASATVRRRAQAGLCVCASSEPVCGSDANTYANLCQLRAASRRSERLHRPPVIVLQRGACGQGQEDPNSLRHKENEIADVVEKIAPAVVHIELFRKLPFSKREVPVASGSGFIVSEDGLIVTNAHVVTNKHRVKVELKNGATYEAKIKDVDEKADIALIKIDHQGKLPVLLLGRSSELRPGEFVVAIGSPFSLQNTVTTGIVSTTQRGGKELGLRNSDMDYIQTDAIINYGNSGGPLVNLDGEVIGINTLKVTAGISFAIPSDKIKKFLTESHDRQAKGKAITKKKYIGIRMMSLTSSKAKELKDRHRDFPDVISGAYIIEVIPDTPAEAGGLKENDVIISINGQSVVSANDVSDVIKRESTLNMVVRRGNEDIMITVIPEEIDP

Substance: HTRA1 A173P, myc-His6 tagged (from UniProt Q92743 23-480) (enzyme)
- binding [1]: no binding (tested: 500 ng/μl)

Substance: HTRA1 A173T, myc-His6 tagged (from UniProt Q92743 23-480) (enzyme)
- binding [2]: no binding (tested: 500 ng/μl)

Substance: HTRA1 G295R, myc-His6 tagged (from UniProt Q92743 23-480) (enzyme)
- binding [3]: no binding (tested: 500 ng/μl)

Substance: HTRA1 R166C, myc-His6 tagged (from UniProt Q92743 23-480) (enzyme)
- binding [4]: no binding (tested: 500 ng/μl)

Substance: HTRA1 R166L, myc-His6 tagged (from UniProt Q92743 23-480) (enzyme)
- binding [5]: no binding (tested: 500 ng/μl)

Substance: HTRA1 Y169E/F171E, myc-His6 tagged (from UniProt Q92743 23-480) (enzyme)
- binding [6]: no binding (tested: 500 ng/μl)
